Experimental data from PubChem BioAssay AID2685 (National Center for Advancing Translational Sciences (NCATS), 2010).
The other results are listed elsewhere or left out. These are further read-outs of the screen, such as a control signal, another cell line or another target. No call is given for them. Compounds called inactive in the main read-out are mostly missing here. The note in brackets gives the kind of curve behind each potency; many fits are weak.

Experiment: qHTS Assay for Lipid Storage Modulators in Drosophila S3 Cells;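 as to cell number change: cells counted by Cell Tracker Red CMTPX staining in the red channel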
Conditions: BODIPY lipid droplet fluorescence, 18-24 h; for cell number change: measured here: cell count max response, cells fed with added oleic acid
Procedure, shortened: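 Laser-scanning cytometry quantifies lipid droplet accumulation (500–530 nm total intensity; droplet/cell object ratio) in oleic acid-fed (400 uM added) Drosophila S3 cells treated with a concentration series. 20 uM Triacsin C defined 100% inhibition.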

[1] = measured here: cell number channel AC50, cells fed with added oleic acid
[2] = measured here: lipid fluorescence (Fed channel) AC50, cells fed with added oleic acid

SMILES | cell number change [%] | AC50 [1] | AC50 [2]
Cc1ccc(OCc2cc(C(=O)N(CCO)Cc3cccs3)no2)cc1C | 30.5 | 29.1 µM [rising, single point] | –
COc1ccc(CC(=O)Nc2nccs2)cc1OC | 25.7 | – | 5.17 µM [rising, partial curve]
CCn1c(SCc2nc3ccccc3[nH]2)nnc1-c1ccc(OC)cc1 | 33.9 | 32.6 µM [rising, single point] | 29.1 µM [rising, single point]
Cc1c[nH]c2cccc(OCC(CNC(C)(C)C)OC(=O)c3ccccc3)c12 (stereo not given) | -1.77 | – | 29.1 µM [rising, single point]
O=C(CCCOc1ccccc1)N1CCN(S(=O)(=O)c2ccccc2)CC1 | 9.64 | – | 6.51 µM [rising, single point]
CC(=O)c1cccc(NC(=O)CN2C(=S)NC(C)(C)CC2C)c1 (stereo not given) | – | – | 6.51 µM [falling, partial curve]
CCCS(=O)(=O)N1CCC(C(=O)NC2CCCC(C)C2C)CC1 (stereo not given) | -32.4 | – | 18.4 µM [rising, single point]
CCSc1cc(N2CCCC2)nc(-c2ccc(F)cc2)n1 | -24.5 | – | –
COc1ccc(-n2c(CCc3ccccc3)nnc2SCC(=O)NCc2ccccc2)cc1 | 41.1 | 14.6 µM [rising, partial curve, poor fit] | –
Cc1[nH]n(-c2ccccc2)c(=O)c1N=Nc1c(O)cc(S(=O)(=O)N(C)C)c2ccccc12 | 28.1 | – | 14.6 µM [rising, partial curve]
Cc1ccnc(Sc2ccc([N+](=O)[O-])cc2[N+](=O)[O-])n1 | -55.6 | 5.17 µM [falling, full curve, poor fit] | 29.1 µM [falling, single point]
CC(Sc1nnnn1C)C(=O)Nc1ccccc1-c1ccccc1 (stereo not given) | -18 | – | 0.164 µM [falling, full curve, poor fit]
Cc1cccc(-c2nc(=S)c3c(n2Cc2ccco2)CCCC3)c1 | 10.8 | – | –
CCCCC(=O)NC(=S)Nc1c(C)cc(Br)cc1C | 9.92 | 2.31 µM [rising, partial curve, poor fit] | –
c1ccc(Nc2ccc3c4c(cccc24)CC3)cc1 | -44.6 | 20.6 µM [falling, single point] | 20.6 µM [falling, single point]
CC(=O)Nc1ccc(C(=O)OCc2ccc(F)cc2Cl)cc1 | -9.82 | 0.731 µM [rising, full curve, poor fit] | 6.51 µM [rising, partial curve, poor fit]
CC(=O)Nc1c2c(nn1-c1cccc(Cl)c1)CS(=O)(=O)C2 | 17.7 | – | 6.51 µM [falling, single point]
Cc1ccc2nc(SCC(=O)c3c(C)[nH]c4ccccc34)[nH]c2c1 | -12.2 | – | 29.1 µM [falling, single point]
O=C(Nc1ccccc1)Nc1ccccc1-n1ccnc1 | 29.8 | – | 20.6 µM [rising, partial curve]
O=C(OCCO)c1cc(Cl)c(C(=O)OCCO)cc1Cl | 4.33 | – | 1.46 µM [falling, full curve, poor fit]

SMILES | cell number change [%] | AC50 [1] | AC50 [2]
O=C(C1CCN(S(=O)(=O)c2ccc(Cl)cc2)CC1)N1CCCC1 | 3.95 | – | 5.62 µM [rising, single point]
Cc1ccc(C#CC(C)(O)C(C)(C)C)cn1 (stereo not given) | – | 0.58 µM [falling, single point] | –
CCOc1ccc2[nH]c(=O)c(CN(CCO)C(=O)c3ccccc3F)cc2c1 | 40 | 23.1 µM [rising, single point] | –
COc1cccc(NC(=O)Cn2c(SCC(=O)N3CCOCC3)nc3ccccc32)c1 | – | 1.64 µM [rising, partial curve] | 20.6 µM [rising, partial curve]
COc1ccc(-c2nn(-c3ccccc3)cc2/C=C2/SC(=S)N(CCC(=O)O)C2=O)c(C)c1 | -35.7 | 9.2 µM [falling, partial curve, poor fit] | 29.1 µM [falling, single point]
O=C(CNC(=O)c1ccc(Br)cc1)NCC(=O)OCC(=O)c1ccccc1 | 34.4 | – | –
CCc1noc(C)c1C(=O)OCC(=O)Nc1ccccc1SC | 25 | 3.26 µM [falling, single point] | –
COC(=O)c1ccc(OC(=O)c2cccs2)cc1 | -7.46 | 5.8 µM [falling, partial curve, poor fit] | 2.06 µM [falling, partial curve, poor fit]
CCCc1nnc(SCC(=O)Nc2ccc3c(c2)OCCO3)n1CCOC | -9.21 | – | –
CC(=O)Nc1ccc(S(=O)(=O)N2CCN3CCCC3C2)cc1 (stereo not given) | -13 | 5.17 µM [falling, single point] | –
CCN(CC(=O)Nc1c(F)cccc1F)C(=O)CCOc1ccccc1 | 5.14 | 6.51 µM [rising, single point] | –
Cc1cc(C)cc(NC(=O)c2oc3ccccc3c2COc2ccccc2)c1 | 27 | – | 1.64 µM [rising, partial curve, poor fit]
O=C(CN1C(=O)c2cccc3cccc(c23)C1=O)N1CCCCC1 | 2.19 | – | 6.51 µM [rising, single point]
O=C(C1CC(=O)N(c2ccc(F)cc2)C1)N1CCCCC1 (stereo not given) | 19.1 | – | 1.16 µM [falling, single point]
Cc1cccc(N=Nc2c(N)n[nH]c2N)c1 | -24.2 | – | 0.651 µM [falling, partial curve, poor fit]
Cc1cc(=O)oc2cc(OC(C)C(=O)Nc3nccs3)ccc12 (stereo not given) | -4.15 | – | 7.31 µM [rising, partial curve, poor fit]
COc1cc(/C=C/C(=O)OCC(=O)N(C)Cc2ccccc2)ccc1O | – | – | 0.517 µM [falling, full curve]
Cc1ccc(NN2C(=O)C=C(c3ccc(Cl)cc3)C2=O)cc1 | -87.2 | – | 9.2 µM [falling, single point]
CC[n+]1c(C)n(-c2ccccc2)c2ccc(NC(C)=O)cc21 | -54.2 | 29.1 µM [falling, partial curve, poor fit] | 29.1 µM [falling, single point]
C/C(=N\NC(=O)CCc1ccccc1)c1ccc(Br)cc1 | – | 3.26 µM [rising, partial curve] | –

SMILES | cell number change [%] | AC50 [1] | AC50 [2]
N=c1ccn(Cc2cccc(Cl)c2)cc1 | -53.7 | 6.51 µM [falling, partial curve, poor fit] | 9.2 µM [falling, partial curve]
O=C(Nc1ccncc1)c1c(F)cccc1F | 62.5 | 7.31 µM [rising, partial curve] | 3.66 µM [rising, single point]
COc1ccc(N2CC(C(=O)Nc3nnc(C4CCCCC4)s3)CC2=O)cc1 (stereo not given) | 10.3 | – | –
CSc1nc2ccc(NC(=O)c3ccc(F)c(F)c3)cc2s1 | 38.3 | – | 1.03 µM [rising, partial curve, poor fit]
NNC(=O)C1COc2cc3ccccc3cc2O1 (stereo not given) | 12.4 | – | –
N#CC1=C(S)N(c2ccccc2)C(c2ccc(-c3cccc(Cl)c3)o2)NC1=O (stereo not given) | 67.6 | 14.6 µM [rising, partial curve, poor fit] | –
CN(C)CCOC(=O)C1(c2ccccc2)CCCC1 | 36.9 | 2.91 µM [rising, full curve] | 6.51 µM [rising, full curve, poor fit]
CCOC(=O)N1CCC(NC(=O)CC(NS(=O)(=O)c2ccc(C)cc2)c2ccco2)CC1 (stereo not given) | – | 2.91 µM [rising, single point] | –
O=C(CSc1ccc(-c2ccccc2)nn1)Nc1ccc2c(c1)OCCO2 | -6.74 | 6.51 µM [rising, single point] | 1.46 µM [rising, full curve]
Cc1cccc(OCCNC(=O)c2cncc(Br)c2)c1 | -1.76 | – | –
CCCCc1cc(=O)oc2cc(OCC(=O)NCc3ccccn3)ccc12 | -20.9 | – | 7.31 µM [falling, partial curve]
O=C(CSc1nncn1-c1cccnc1)Nc1cccc(C(F)(F)F)c1 | -10 | – | –
CC(NC(=O)c1ccc(N(C)C)cc1)c1ccc(F)cc1 (stereo not given) | 4.56 | – | 4.11 µM [rising, single point]
COc1ccc(N2CCN(C(=O)Cc3csc(NC(=O)Nc4ccccc4OC)n3)CC2)cc1 | 69.2 | 18.4 µM [rising, single point] | 0.103 µM [rising, full curve, poor fit]
O=C(CCSCc1ccccc1F)N1CCN(c2ccccn2)CC1 | 20.5 | – | 11.6 µM [rising, partial curve]
CCOC(=O)N1CCC(NC(=O)c2csc3c2CCCC3)CC1 | -56.2 | 20.6 µM [falling, partial curve] | 14.6 µM [falling, partial curve]
OCCCNCc1ccc(-c2ccccc2)cc1 | 44.7 | 0.0116 µM [rising, full curve, poor fit] | 32.6 µM [rising, single point]
CCOC(=O)c1ccc(NC(=O)CC2OCCN(CC)C2=O)cc1 (stereo not given) | 3.1 | – | –
O=c1ccccn1CCOc1ccccc1Cl | 5.32 | – | 3.26 µM [rising, partial curve, poor fit]
O=C(C1=C(O)C(=O)N(CCCN2CCOCC2)C1c1ccncc1)c1cc2ccccc2o1 (stereo not given) | 12 | – | 0.0326 µM [rising, full curve, poor fit]

Entries listed so far that contain a tert-butyl group:
SMILES | cell number change [%] | AC50 [1] | AC50 [2]
Cc1c[nH]c2cccc(OCC(CNC(C)(C)C)OC(=O)c3ccccc3)c12 (stereo not given) | -1.77 | – | 29.1 µM [rising, single point]
Cc1ccc(C#CC(C)(O)C(C)(C)C)cn1 (stereo not given) | – | 0.58 µM [falling, single point] | –
